These are yes or no findings as the source states them, for the method shown. Some entries that bind do so weakly or less than the wild type. Sequences can lack the tags named with a protein. Values belong to the binder of their own block, whether it stands above or below them.
Tests used:
[1] = biological target: T1, human NRG1-β1 protein (full length, HA tag at the N-terminus, on NRG1-b/st293T cells) (human) (UniProt Q02297); test: flow cytometry on NRG1-b/st293T cells, antibody at 5 µg/mL (FIG. 16)
T1 sequence: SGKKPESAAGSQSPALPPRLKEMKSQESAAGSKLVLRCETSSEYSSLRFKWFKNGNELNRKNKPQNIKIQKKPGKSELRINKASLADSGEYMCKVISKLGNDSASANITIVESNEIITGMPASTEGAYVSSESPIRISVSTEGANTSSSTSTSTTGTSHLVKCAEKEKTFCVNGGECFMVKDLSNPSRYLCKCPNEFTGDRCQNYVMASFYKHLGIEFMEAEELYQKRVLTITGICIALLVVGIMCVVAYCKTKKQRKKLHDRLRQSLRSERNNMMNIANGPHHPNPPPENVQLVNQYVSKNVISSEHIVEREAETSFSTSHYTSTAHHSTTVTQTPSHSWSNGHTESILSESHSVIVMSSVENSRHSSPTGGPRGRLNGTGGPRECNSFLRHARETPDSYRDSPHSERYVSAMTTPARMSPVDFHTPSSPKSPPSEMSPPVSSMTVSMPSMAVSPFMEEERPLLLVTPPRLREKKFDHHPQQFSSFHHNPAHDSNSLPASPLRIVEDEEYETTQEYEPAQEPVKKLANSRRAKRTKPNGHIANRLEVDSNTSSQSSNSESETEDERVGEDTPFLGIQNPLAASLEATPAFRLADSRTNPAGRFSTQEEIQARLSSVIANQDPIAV

[2] = biological target: T1, human NRG1-β1 protein (full length, HA tag at the N-terminus, on NRG1-b/st293T cells) (human); test: flow cytometry on NRG1-b/st293T cells, antibody at 5 µg/mL
[3] = biological target: T2, human NRG1-α protein (full length, HA tag at the N-terminus, on NRG1-a/st293T cells) (human) (UniProt Q02297); test: methods of Examples 2 and 3 (flow cytometry on cells, ELISA)
T2 sequence: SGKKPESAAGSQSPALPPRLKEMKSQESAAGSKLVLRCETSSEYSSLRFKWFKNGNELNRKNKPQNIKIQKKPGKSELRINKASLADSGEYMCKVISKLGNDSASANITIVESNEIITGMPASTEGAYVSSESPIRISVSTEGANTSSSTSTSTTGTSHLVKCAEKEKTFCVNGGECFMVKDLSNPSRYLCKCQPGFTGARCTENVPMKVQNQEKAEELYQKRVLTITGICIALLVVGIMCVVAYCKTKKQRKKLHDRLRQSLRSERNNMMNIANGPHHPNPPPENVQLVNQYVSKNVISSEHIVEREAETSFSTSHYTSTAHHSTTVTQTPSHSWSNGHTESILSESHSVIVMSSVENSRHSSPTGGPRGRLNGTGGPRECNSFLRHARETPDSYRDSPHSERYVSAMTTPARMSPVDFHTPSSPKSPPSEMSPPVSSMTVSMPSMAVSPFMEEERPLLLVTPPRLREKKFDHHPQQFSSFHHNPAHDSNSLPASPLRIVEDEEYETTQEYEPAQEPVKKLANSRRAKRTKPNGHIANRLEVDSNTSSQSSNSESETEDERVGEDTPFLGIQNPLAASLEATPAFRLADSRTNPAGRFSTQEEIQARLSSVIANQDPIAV

[4] = biological target: T2, human NRG1-α protein (full length, HA tag at the N-terminus, on NRG1-a/st293T cells) (human); test: flow cytometry on NRG1-a/st293T cells, antibody at 5 µg/mL
[5] = biological target: T2, human NRG1-α protein (full length, HA tag at the N-terminus, on NRG1-a/st293T cells) (human); test: flow cytometry on NRG1-a/st293T cells, antibody at 5 µg/mL and serially diluted (FIGS. 16 and 17)
[6] = biological target: T1, human NRG1-β1 protein (full length, HA tag at the N-terminus, on NRG1-b/st293T cells) (human); test: methods of Examples 2 and 3 (flow cytometry on cells, ELISA)

- binding [1]: binds
B1: 10b2M3 chimeric antibody (antibody, V domains shown)
VH: QVQLQQSGPELVKPGASVKISCKASGYAFSSSWMNWVKQRPGKGLEWIGRIYPGDGDIYYNGKFKGKATLTADKSSSTAYMQLNSLTSEDSAVYFCARTFNYPFFAYWGQGTLVTVSS
VL: DILMTQSPSSLTVSTGEKVTMSCKSSQSLLASANQNNYLAWHQQKPGRSPKMLIIWASTRVSGVPDRFIGSGSGTDFTLTINSVQAEDLAVYYCQQSYSAPTTFGAGTKL

- binding [2]: binds
B2: 10b2M3 (antibody, mouse IgG1, V domains shown)
VH: B1 VH
VL: B1 VL

- binding [3]: binds
- binding [4]: binds
B3: 8a4 (antibody, mouse IgG1, V domains shown)
VH: EVQLQQSGADLVRPGASVKLSCTASGFNIKDDYIHWVKQRPEQGLEWIGWIDPENGDTEYASQFQGKATITADTSSNTAYLQLRSLTSEDTAVYYCTTSDHRAWFAFWGLGTLVTVSS
VL: DVLMTQTPLSLPVSLGDQASISCRSSQTIVHRNGNTYLEWYLQKPGQSPKLLIYRVSNRFSGVPDRFSGSGSGTDFTLKISRVEAEDLGVYYCFQGSHVPLTFGAGTKL

- binding [5]: binds
B4: 8a4 chimeric antibody (antibody, V domains shown)
VH: B3 VH
VL: B3 VL

- binding [6]: binds
- binding [2]: binds
B5: 10bM3 (antibody, mouse IgG1, V domains shown)
VH: EVQLVESGGGLVKPGGSRKLSCAASGFTFSDYGIHWVRQAPEKGLEWLAYISSGSSTIYYADTVKGRFTISRDNAKNTLFLQMTSLRSEDTAMYYCARGSNYVGYYAMDYWGQGTSVTVSS
VL: DIVMTQSPSSLAVTAGEKVTMRCKSSQSLLWSVNQKNYLSWYQQKEGQSPKLLIYGASIRESWVPDRFTGSGSGTDFTLTISNVHAEDLAVYYCQHNHGRFLPLTFGGGTKL

- binding [1]: binds
B6: 10bM3 chimeric antibody (antibody, V domains shown)
VH: B5 VH
VL: B5 VL
